Laboratory results: the supplement of paper PMC10849652
This is one part of the list.

By UniProt entry, the sequences of proteins in these tests, tags left out. Where a name states a change or a piece, a line headed by the entry shows the natural chain unless it says otherwise.
UniProt P53396: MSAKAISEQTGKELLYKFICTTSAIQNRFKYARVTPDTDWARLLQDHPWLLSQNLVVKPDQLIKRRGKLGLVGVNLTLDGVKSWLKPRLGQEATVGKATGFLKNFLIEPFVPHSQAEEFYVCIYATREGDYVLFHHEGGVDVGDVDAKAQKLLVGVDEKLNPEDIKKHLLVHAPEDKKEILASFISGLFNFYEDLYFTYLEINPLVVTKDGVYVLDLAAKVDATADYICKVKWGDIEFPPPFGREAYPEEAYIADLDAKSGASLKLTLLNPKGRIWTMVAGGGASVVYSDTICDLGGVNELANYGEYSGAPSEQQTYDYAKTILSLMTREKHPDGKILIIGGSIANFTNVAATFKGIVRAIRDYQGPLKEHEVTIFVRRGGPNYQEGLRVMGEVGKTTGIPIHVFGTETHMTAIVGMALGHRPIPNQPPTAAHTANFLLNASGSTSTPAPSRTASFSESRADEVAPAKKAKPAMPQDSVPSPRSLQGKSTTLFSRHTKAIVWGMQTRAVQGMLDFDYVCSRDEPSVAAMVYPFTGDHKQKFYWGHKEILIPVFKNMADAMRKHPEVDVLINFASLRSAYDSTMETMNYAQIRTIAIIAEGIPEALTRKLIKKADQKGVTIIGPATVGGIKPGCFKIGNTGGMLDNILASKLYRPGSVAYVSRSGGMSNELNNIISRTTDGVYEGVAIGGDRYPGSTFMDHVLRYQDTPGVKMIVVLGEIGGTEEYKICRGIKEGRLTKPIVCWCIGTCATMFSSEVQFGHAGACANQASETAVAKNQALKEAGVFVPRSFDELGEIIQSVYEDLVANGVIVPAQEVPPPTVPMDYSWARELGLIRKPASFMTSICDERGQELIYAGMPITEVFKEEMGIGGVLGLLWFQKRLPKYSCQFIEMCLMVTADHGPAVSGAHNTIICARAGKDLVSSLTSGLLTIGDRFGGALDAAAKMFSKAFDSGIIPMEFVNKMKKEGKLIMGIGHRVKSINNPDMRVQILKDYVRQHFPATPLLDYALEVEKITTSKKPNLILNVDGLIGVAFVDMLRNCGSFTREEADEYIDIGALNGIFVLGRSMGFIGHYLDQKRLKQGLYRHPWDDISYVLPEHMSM
UniProt Q9NX38: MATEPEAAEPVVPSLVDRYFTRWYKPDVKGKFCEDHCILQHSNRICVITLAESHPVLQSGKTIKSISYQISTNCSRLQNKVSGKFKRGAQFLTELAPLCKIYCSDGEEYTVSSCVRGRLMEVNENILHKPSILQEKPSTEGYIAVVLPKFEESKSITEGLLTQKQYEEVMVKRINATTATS
UniProt P78363: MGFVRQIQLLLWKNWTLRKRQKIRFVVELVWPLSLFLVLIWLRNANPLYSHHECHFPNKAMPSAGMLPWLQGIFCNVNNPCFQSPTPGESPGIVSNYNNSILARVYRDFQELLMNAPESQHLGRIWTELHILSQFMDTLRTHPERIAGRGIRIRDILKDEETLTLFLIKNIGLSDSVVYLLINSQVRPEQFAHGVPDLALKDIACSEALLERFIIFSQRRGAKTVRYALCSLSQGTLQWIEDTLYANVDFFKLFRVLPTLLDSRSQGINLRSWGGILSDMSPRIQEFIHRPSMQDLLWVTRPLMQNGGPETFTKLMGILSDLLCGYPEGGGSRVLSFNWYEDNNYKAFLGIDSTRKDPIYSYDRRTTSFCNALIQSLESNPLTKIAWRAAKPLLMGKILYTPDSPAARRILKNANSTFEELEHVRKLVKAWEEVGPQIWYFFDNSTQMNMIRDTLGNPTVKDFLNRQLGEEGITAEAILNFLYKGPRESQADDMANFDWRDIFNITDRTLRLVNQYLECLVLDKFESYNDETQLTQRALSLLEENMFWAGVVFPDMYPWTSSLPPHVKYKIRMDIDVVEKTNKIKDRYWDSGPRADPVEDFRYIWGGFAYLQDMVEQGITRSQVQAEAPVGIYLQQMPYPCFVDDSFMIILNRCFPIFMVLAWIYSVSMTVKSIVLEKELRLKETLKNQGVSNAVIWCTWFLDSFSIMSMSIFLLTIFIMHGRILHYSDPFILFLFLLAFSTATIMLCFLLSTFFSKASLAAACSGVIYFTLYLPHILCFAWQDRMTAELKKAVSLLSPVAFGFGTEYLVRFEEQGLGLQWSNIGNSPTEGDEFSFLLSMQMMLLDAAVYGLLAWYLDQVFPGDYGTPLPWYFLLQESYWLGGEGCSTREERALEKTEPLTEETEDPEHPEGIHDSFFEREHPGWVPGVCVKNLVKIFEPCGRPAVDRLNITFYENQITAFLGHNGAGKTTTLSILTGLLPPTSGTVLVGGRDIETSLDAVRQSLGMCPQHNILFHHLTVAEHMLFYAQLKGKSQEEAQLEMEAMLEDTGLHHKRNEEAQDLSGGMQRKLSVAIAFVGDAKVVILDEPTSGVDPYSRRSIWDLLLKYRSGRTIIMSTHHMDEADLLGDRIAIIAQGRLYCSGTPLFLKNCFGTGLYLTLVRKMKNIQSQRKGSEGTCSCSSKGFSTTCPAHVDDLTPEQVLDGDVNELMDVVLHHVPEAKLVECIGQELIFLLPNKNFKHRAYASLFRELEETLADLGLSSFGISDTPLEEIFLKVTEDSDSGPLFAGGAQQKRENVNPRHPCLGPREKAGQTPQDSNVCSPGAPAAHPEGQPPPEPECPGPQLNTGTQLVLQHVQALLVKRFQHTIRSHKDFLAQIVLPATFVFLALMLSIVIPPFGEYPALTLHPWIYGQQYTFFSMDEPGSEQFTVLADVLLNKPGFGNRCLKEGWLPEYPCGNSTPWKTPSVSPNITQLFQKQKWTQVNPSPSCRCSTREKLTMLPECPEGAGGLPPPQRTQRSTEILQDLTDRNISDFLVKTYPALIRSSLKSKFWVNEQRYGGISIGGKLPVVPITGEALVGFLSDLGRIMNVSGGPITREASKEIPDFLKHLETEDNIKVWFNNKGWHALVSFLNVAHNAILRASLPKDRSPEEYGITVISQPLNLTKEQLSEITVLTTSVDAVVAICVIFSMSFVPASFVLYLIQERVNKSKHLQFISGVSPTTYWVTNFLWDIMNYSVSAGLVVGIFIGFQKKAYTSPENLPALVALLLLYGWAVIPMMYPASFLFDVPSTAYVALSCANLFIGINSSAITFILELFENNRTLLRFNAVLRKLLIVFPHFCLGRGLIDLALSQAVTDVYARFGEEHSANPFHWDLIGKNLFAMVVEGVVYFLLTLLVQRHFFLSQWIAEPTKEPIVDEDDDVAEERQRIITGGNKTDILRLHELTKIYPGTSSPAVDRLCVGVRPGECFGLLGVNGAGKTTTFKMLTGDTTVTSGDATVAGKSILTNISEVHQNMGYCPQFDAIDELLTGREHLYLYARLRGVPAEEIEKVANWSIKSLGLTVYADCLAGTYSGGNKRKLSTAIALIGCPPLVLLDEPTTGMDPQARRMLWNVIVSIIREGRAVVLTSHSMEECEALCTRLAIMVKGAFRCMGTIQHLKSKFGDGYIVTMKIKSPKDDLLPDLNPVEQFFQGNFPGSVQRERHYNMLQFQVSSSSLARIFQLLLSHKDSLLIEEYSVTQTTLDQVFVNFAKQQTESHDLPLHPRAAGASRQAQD
UniProt Q9H845: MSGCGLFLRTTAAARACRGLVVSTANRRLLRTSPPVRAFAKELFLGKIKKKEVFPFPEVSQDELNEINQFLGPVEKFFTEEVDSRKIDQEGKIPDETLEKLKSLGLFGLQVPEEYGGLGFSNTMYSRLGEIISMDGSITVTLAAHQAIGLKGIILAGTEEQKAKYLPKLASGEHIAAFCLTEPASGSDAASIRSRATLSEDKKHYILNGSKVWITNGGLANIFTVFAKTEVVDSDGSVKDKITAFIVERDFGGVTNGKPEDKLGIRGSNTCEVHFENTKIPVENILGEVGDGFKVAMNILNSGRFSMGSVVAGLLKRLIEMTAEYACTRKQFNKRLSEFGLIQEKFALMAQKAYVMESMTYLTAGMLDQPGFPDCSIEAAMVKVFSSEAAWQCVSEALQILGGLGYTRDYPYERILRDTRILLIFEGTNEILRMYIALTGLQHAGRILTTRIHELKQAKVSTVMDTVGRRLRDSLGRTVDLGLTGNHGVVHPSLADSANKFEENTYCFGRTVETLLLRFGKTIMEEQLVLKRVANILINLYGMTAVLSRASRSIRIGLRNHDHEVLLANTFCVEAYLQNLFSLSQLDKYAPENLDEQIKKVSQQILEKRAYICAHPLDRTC
UniProt P01023, whole entry, looked up: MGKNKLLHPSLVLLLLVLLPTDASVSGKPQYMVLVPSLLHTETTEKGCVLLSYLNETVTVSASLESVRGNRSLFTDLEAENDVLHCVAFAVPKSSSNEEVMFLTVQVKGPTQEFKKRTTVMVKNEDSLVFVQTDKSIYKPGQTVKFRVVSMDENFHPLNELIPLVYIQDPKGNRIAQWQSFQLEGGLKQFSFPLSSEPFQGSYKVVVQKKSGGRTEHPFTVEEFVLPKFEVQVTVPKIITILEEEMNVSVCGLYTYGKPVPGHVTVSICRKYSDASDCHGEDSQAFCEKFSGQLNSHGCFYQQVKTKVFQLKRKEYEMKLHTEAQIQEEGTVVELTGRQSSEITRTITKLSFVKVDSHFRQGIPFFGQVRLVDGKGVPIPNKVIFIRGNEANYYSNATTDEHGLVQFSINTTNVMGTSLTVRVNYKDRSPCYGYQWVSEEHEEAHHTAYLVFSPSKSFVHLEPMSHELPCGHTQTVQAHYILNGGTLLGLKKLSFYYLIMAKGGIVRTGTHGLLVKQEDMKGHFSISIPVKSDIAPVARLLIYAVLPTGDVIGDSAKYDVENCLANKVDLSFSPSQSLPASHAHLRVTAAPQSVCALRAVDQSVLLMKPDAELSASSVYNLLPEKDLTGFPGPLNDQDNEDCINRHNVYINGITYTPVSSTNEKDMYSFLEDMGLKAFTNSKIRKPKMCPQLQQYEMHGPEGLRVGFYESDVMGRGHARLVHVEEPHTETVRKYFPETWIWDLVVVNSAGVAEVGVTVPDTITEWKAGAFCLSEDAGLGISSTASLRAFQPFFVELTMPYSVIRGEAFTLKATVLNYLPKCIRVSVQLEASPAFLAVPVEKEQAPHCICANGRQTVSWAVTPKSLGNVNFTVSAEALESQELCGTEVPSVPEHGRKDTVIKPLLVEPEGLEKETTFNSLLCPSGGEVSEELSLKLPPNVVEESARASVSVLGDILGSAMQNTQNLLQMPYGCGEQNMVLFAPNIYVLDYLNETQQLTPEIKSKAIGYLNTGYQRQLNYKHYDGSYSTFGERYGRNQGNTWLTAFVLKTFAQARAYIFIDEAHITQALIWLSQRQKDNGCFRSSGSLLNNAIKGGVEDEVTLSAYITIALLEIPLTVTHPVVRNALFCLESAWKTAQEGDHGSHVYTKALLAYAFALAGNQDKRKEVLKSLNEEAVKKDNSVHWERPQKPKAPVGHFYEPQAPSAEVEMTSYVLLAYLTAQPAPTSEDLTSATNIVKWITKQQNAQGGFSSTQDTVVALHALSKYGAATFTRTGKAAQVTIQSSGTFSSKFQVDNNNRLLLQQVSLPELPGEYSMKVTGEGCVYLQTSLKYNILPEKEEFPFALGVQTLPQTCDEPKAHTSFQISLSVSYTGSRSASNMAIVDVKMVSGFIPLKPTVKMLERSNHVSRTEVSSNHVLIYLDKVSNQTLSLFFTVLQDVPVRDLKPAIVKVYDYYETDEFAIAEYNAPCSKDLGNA
UniProt Q9NY61: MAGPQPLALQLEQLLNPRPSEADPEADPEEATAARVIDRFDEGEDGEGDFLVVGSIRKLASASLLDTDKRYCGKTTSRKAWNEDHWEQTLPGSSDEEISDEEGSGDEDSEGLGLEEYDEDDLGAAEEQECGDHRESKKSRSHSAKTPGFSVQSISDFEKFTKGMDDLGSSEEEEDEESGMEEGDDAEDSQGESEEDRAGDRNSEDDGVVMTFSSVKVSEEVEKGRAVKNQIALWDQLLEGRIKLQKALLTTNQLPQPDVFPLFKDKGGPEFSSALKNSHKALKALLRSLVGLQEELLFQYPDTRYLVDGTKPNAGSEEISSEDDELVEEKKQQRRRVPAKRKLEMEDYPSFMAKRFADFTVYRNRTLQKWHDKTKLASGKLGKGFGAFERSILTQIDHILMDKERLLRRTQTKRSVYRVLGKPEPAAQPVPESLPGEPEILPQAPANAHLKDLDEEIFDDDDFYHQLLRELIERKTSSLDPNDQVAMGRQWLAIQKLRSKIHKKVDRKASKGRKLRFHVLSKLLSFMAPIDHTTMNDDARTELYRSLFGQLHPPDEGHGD

Experiments:
Assay in all cases: log2 fold change, soluble protein after heating vs DMSO (PISA); higher = thermal stabilisation; K562 lysate, 10 uM; active = over 0.2 and 3.5 SD of the protein, either way, in both replicates (recomputed)
lapatinib = compound: CS(=O)(=O)CCNCc1ccc(-c2ccc3ncnc(Nc4ccc(OCc5cccc(F)c5)c(Cl)c4)c3c2)o1 [lapatinib]
In short: (§1)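 Values give the log-two fold change in thermal stability against solvent controls, from duplicates. Crude K562 extract at 1 mg/mL protein, made by dounce homogenisation in PBS pH 7.4 with 1 mM MgCl2, was treated with 10 μM compound for 30 min. After 3 min heating across 48°C-58°C, aliquots were pooled, adjusted to 0.5% NP-40 at 4°C and centrifuged at 21,000xg for 90 min. The supernatant was measured by TMTpro 16plex LC-MS/MS with channel sums equalised.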

pictilisib = compound: CS(=O)(=O)N1CCN(Cc2cc3nc(-c4cccc5[nH]ncc45)nc(N4CCOCC4)c3s2)CC1 [pictilisib]
In short: as §1

crizotinib = compound: C[C@@H](Oc1cc(-c2cnn(C3CCNCC3)c2)cnc1N)c1c(Cl)ccc(F)c1Cl [crizotinib]
In short: as §1

[1] = compound: C[C@H](C1=CC=C(C=C1)C(=O)NC2=C3C=CNC3=NC=C2)N
In short: as §1

duvelisib = compound: C[C@H](Nc1ncnc2nc[nH]c12)c1cc2cccc(Cl)c2c(=O)n1-c1ccccc1 [duvelisib]
In short: as §1

gandotinib = compound: Cc1cc(Nc2cc(CN3CCOCC3)c3nc(C)c(Cc4ccc(Cl)cc4F)n3n2)n[nH]1 [gandotinib]
In short: as §1

tozasertib = compound: Cc1cc(Nc2cc(N3CCN(C)CC3)nc(Sc3ccc(NC(=O)C4CC4)cc3)n2)n[nH]1 [tozasertib]
In short: as §1

doramapimod = compound: Cc1ccc(-n2nc(C(C)(C)C)cc2NC(=O)Nc2ccc(OCCN3CCOCC3)c3ccccc23)cc1 [doramapimod]
In short: as §1

bafetinib = compound: Cc1ccc(NC(=O)c2ccc(CN3CC[C@H](N(C)C)C3)c(C(F)(F)F)c2)cc1Nc1nccc(-c2cncnc2)n1 [bafetinib]
In short: as §1

[2] = compound: Cc1cccc(CC(=O)N2CCc3c2ccc(-c2cn(C)c4ncnc(N)c24)c3F)n1
In short: as §1

nilotinib = compound: Cc1cn(-c2cc(NC(=O)c3ccc(C)c(Nc4nccc(-c5cccnc5)n4)c3)cc(C(F)(F)F)c2)cn1 [nilotinib]
In short: as §1

[3] = compound: Cc1nc(Nc2n[nH]c3c2CN(C(=O)N[C@H](CN(C)C)c2ccccc2)C3(C)C)c2sccc2n1
In short: as §1

dasatinib = compound: Cc1nc(Nc2ncc(C(=O)Nc3c(C)cccc3Cl)s2)cc(N2CCN(CCO)CC2)n1 [dasatinib]
In short: as §1

[4] = compound: Cc1ncc(-c2ccnc(Nc3ccc(S(C)(=O)=O)cc3)n2)n1C(C)C
In short: as §1

[5] = compound: Cn1cc(-c2ccc3c(c2)CCN3C(=O)Cc2cccc(C(F)(F)F)c2)c2c(N)ncnc21
In short: as §1

quisinostat = compound: Cn1cc(CNCC2CCN(c3ncc(C(=O)NO)cn3)CC2)c2ccccc21 [quisinostat]
In short: as §1

tipifarnib = compound: Cn1cncc1[C@@](N)(c1ccc(Cl)cc1)c1ccc2c(c1)c(-c1cccc(Cl)c1)cc(=O)n2C [tipifarnib]
In short: as §1

[6] = compound: NC(=O)Nc1cc(-c2cccc(F)c2)sc1C(=O)N[C@H]1CCCNC1
In short: as §1

[7] = compound: NC(=O)c1cnc(N[C@@H]2CCCC[C@@H]2N)nc1Nc1cccc(-n2nccn2)c1
In short: as §1

[8] = compound: NC1(c2ccc(-c3nc4ccn5c(=O)[nH]nc5c4cc3-c3ccccc3)cc2)CCC1
In short: as §1

Measured: log2 fold change

ABCB7 isoform 2 (UniProt O75027)
inactive: lapatinib -0.074 | pictilisib -0.041 | crizotinib 0 | [1] -0.086 | duvelisib 0.002 | gandotinib -0.244 | tozasertib 0.044 | doramapimod -0.03 | bafetinib 0 | [2] 0.114 | nilotinib -0.003 | [3] -0.021 | dasatinib -0.019 | [4] 0.023 | [5] 0.017 | quisinostat -0.01 | tipifarnib -0.05 | [6] -0.002 | [7] 0.026 | [8] -0.03

ACADM isoform 2 (UniProt P11310)
inactive: lapatinib -0.007 | pictilisib -0.009 | crizotinib -0.042 | [1] -0.007 | duvelisib -0.007 | gandotinib 0.029 | tozasertib 0.029 | doramapimod -0.03 | bafetinib 0.024 | [2] -0.01 | nilotinib -0.031 | [3] -0.008 | dasatinib -0.041 | [4] -0.009 | [5] 0.001 | quisinostat 0.009 | tipifarnib -0.021 | [6] -0.027 | [7] -0.033 | [8] -0.091

ACLY (UniProt P53396)
inactive: lapatinib -0.011 | pictilisib -0.009 | crizotinib -0.005 | [1] -0.025 | duvelisib 0.012 | gandotinib 0.01 | tozasertib 0.003 | doramapimod 0.015 | bafetinib 0.008 | [2] 0.013 | nilotinib -0.005 | [3] -0.016 | dasatinib -0.026 | [4] -0.005 | [5] 0.021 | quisinostat 0.002 | tipifarnib 0.016 | [6] -0.004 | [7] 0.018 | [8] 0.014

ABITRAM (UniProt Q9NX38)
inactive: lapatinib -0.041 | pictilisib -0.046 | crizotinib 0.004 | [1] -0.154 | duvelisib -0.02 | gandotinib 0.042 | tozasertib 0.019 | doramapimod -0.012 | bafetinib -0.043 | [2] 0.023 | nilotinib -0.022 | [3] 0.037 | dasatinib 0.115 | [4] 0.008 | [5] 0.039 | quisinostat -0.047 | tipifarnib -0.001 | [6] 0.073 | [7] -0.085 | [8] -0.021

ABCA4 (UniProt P78363)
inactive: lapatinib -0.038 | pictilisib -0.012 | crizotinib -0.093 | [1] -0.11 | duvelisib 0.024 | gandotinib 0.099 | tozasertib 0.034 | doramapimod -0.026 | bafetinib -0.025 | [2] 0.048 | nilotinib 0.029 | [3] -0.072 | dasatinib -0.029 | [4] 0.109 | [5] 0.036 | quisinostat -0.103 | tipifarnib 0.166 | [6] 0.004 | [7] 0.022 | [8] -0.108

AAK1, A0A096LP25
inactive: lapatinib -0.078 | pictilisib 0 | crizotinib 0.232 | [1] 0.349 | duvelisib -0.019 | gandotinib 0.316 | tozasertib 0.157 | doramapimod -0.037 | bafetinib 0.047 | [2] -0.076 | nilotinib -0.006 | [3] 0.347 | dasatinib 0.061 | [4] 0.374 | [5] 0.008 | quisinostat -0.034 | tipifarnib -0.136 | [6] 0.44 | [7] 0.104 | [8] -0.045

ACAA1 (UniProt P09110)
inactive: lapatinib 0.017 | pictilisib -0.005 | crizotinib 0.014 | [1] -0.015 | duvelisib -0.014 | gandotinib 0.056 | tozasertib -0.043 | doramapimod -0.001 | bafetinib 0.045 | [2] -0.011 | nilotinib 0.035 | [3] -0.019 | dasatinib 0.014 | [4] -0.007 | [5] -0.027 | quisinostat -0.026 | tipifarnib 0.011 | [6] -0.001 | [7] -0.016 | [8] 0.009

ABCF2 isoform 2 (UniProt Q9UG63)
inactive: lapatinib -0.038 | pictilisib -0.005 | crizotinib -0.011 | [1] -0.001 | duvelisib 0.021 | gandotinib -0.097 | tozasertib 0.057 | doramapimod -0.002 | bafetinib -0.025 | [2] -0.024 | nilotinib 0.001 | [3] -0.001 | dasatinib -0.036 | [4] -0.024 | [5] 0.005 | quisinostat -0.022 | tipifarnib 0.002 | [6] 0.042 | [7] -0.002 | [8] -0.023

ACAD9 (UniProt Q9H845)
inactive: lapatinib -0.037 | pictilisib -0.015 | crizotinib -0.031 | [1] -0.033 | duvelisib 0.081 | gandotinib 0.083 | tozasertib -0.006 | doramapimod 0.065 | bafetinib -0.041 | [2] 0.035 | nilotinib 0.026 | [3] -0.019 | dasatinib 0.102 | [4] -0.006 | [5] 0.051 | quisinostat 0.001 | tipifarnib 0.051 | [6] 0 | [7] 0 | [8] 0.012

AARS2 (UniProt Q5JTZ9)
inactive: lapatinib 0.007 | pictilisib 0.01 | crizotinib -0.046 | [1] 0.072 | duvelisib 0.012 | gandotinib -0.121 | tozasertib 0.039 | doramapimod 0.034 | bafetinib -0.041 | [2] 0.019 | nilotinib -0.046 | [3] 0.021 | dasatinib -0.018 | [4] -0.013 | [5] 0.062 | quisinostat -0.046 | tipifarnib 0.023 | [6] 0.053 | [7] 0.016 | [8] -0.05

ABCD3 (UniProt P28288)
inactive: lapatinib 0.179 | pictilisib -0.019 | crizotinib -0.063 | [1] 0.014 | duvelisib 0.019 | gandotinib 0.079 | tozasertib 0.098 | doramapimod -0.002 | bafetinib 0.027 | [2] -0.006 | nilotinib 0.019 | [3] 0.093 | dasatinib -0.063 | [4] -0.184 | [5] 0.031 | quisinostat 0.074 | tipifarnib -0.025 | [6] 0.016 | [7] -0.054 | [8] 0.087

ACIN1 isoform 5 (UniProt Q9UKV3)
inactive: lapatinib 0.012 | pictilisib -0.024 | crizotinib 0.034 | [1] 0.022 | duvelisib -0.002 | gandotinib -0.003 | tozasertib 0.003 | doramapimod 0.01 | bafetinib -0.013 | [2] 0.002 | nilotinib 0.017 | [3] -0.018 | dasatinib -0.012 | [4] 0.001 | [5] 0.008 | quisinostat 0.011 | tipifarnib 0 | [6] -0.063 | [7] 0.024 | [8] 0.01

A2M (UniProt P01023)
inactive: lapatinib -0.011 | pictilisib -0.019 | crizotinib 0.073 | [1] -0.064 | duvelisib -0.021 | gandotinib 0.006 | tozasertib -0.059 | doramapimod -0.105 | bafetinib -0.03 | [2] -0.01 | nilotinib 0.049 | [3] 0.012 | dasatinib -0.002 | [4] -0.019 | [5] 0.001 | quisinostat 0.109 | tipifarnib -0.031 | [6] 0.003 | [7] -0.01 | [8] 0.014

2 successive records out of the list so far, for reference:
ACIN1 isoform 5 (UniProt Q9UKV3)
inactive: lapatinib 0.012 | pictilisib -0.024 | crizotinib 0.034 | [1] 0.022 | duvelisib -0.002 | gandotinib -0.003 | tozasertib 0.003 | doramapimod 0.01 | bafetinib -0.013 | [2] 0.002 | nilotinib 0.017 | [3] -0.018 | dasatinib -0.012 | [4] 0.001 | [5] 0.008 | quisinostat 0.011 | tipifarnib 0 | [6] -0.063 | [7] 0.024 | [8] 0.01

A2M (UniProt P01023)
inactive: lapatinib -0.011 | pictilisib -0.019 | crizotinib 0.073 | [1] -0.064 | duvelisib -0.021 | gandotinib 0.006 | tozasertib -0.059 | doramapimod -0.105 | bafetinib -0.03 | [2] -0.01 | nilotinib 0.049 | [3] 0.012 | dasatinib -0.002 | [4] -0.019 | [5] 0.001 | quisinostat 0.109 | tipifarnib -0.031 | [6] 0.003 | [7] -0.01 | [8] 0.014

Remaining list, next part

AACS (UniProt Q86V21)
inactive: lapatinib 0.055 | pictilisib -0.019 | crizotinib -0.061 | [1] 0.013 | duvelisib 0.053 | gandotinib -0.034 | tozasertib 0.081 | doramapimod 0.019 | bafetinib -0.027 | [2] 0.073 | nilotinib 0.003 | [3] 0.007 | dasatinib 0.013 | [4] -0.025 | [5] 0.049 | quisinostat -0.011 | tipifarnib -0.049 | [6] 0.05 | [7] -0.008 | [8] 0.016

AATF (UniProt Q9NY61)
inactive: lapatinib 0.055 | pictilisib -0.007 | crizotinib -0.037 | [1] -0.024 | duvelisib 0.018 | gandotinib 0.102 | tozasertib 0.033 | doramapimod 0.035 | bafetinib -0.094 | [2] 0.03 | nilotinib -0.002 | [3] 0.015 | dasatinib 0.022 | [4] 0.029 | [5] 0.038 | quisinostat 0.01 | tipifarnib -0.052 | [6] 0.021 | [7] 0.03 | [8] -0.011

ACADSB (UniProt P45954)
inactive: lapatinib 0.064 | pictilisib -0.06 | crizotinib -0.062 | [1] 0.053 | duvelisib 0.065 | gandotinib -0.055 | tozasertib -0.047 | doramapimod 0.033 | bafetinib -0.003 | [2] -0.01 | nilotinib 0.023 | [3] -0.027 | dasatinib -0.161 | [4] 0.062 | [5] 0.077 | quisinostat -0.006 | tipifarnib -0.034 | [6] 0.029 | [7] -0.025 | [8] 0.036
